Among all 300,000 compounds or so, about 3,700 (1.2%) were called active. The inconclusive results got no clear call from the source; some entries with a clear call stand among them for comparison. Calls follow the shape of the full dose curve; tested in HEK293 cells. A potency beside an inconclusive call is a rough fit, not a confirmed value.
Test: qHTS for Inhibitors of binding or entry into cells for Lassa Virus; also: nearly all actives have a fitted effect of over 50% in size
Settings: Lassa virus pseudotype entry inhibition, cell reporter; activity change, negative = inhibition: at 37.9 µM (top of the series) unless noted
% is scaled to controls: 0 for no effect and ±100 for the full control effect; potency is read from the fitted curve at half-maximal effect.

SMILES	Potency	activity change, negative = inhibition
CCOc1ccc(NC(=S)NNC(=O)c2ccc(Br)cc2)cc1	inconclusive: 35.5 µM [inhibitor, single point]	
CC(=O)N(C1=C(Cl)C(=O)c2ccccc2C1=O)C1CCCCC1	active: 12.6 µM	
Cc1cc(C)c(S(=O)(=O)NCCCn2ccnc2)cc1C	inconclusive: 1.26 µM [inhibitor, single point]	
CS(=O)(=O)N1N=C(c2ccccc2)CC1c1ccc2nccnc2c1 (configuration not stated)		inactive: 11.3%
CCCC(C(=O)NC1CCCCC1)N(CC1CCCO1)C(=O)CNS(=O)(=O)c1ccc(F)cc1 (configuration not stated)	inconclusive: 0.562 µM [activator, single point]	
O=C(Nc1ccnn1C1CCN(Cc2ccc(OC(F)F)cc2)CC1)C1CCCC1	inconclusive: 35.5 µM [inhibitor, partial curve, poor fit]	
CC(C)COC(=O)Nc1nnc(SCc2ccccc2F)s1	inconclusive: 6.51 µM [activator, partial curve, poor fit]	
CCCS(=O)(=O)N1CCN(C(=O)CCC2CCCC2)CC1	inconclusive: 7.94 µM [activator, partial curve, poor fit]	
O=C(c1cnc2n(c1=O)CCS2)N1CCCc2ccccc21		inactive: 2.73%
CC(NC(=O)c1cccs1)C(S)c1ccccc1 (configuration not stated)		inactive: -0.287% [at 46.1 µM]
Fc1cccc(Cl)c1CSc1nnnn1-c1ccc2c(c1)OCO2	inconclusive: 29.1 µM [inhibitor, single point]	
COCCn1cnc2c(c1=O)c1nc3ccccc3nc1n2/N=C/c1cccc(OC)c1	inconclusive: 17.8 µM [inhibitor, single point]	
CC(=O)COC(=O)CCc1nc2ccccc2[nH]c1=O		inactive: -17%
COc1ccc(C(=O)c2oc3ccccc3c2NC(=O)c2nc(SC)ncc2Cl)cc1Cl		inactive: 7.04% [at 46.1 µM]
Cc1ccc(C)c(S(=O)(=O)N2CCN(C(=O)C3CC3C)CC2)c1 (configuration not stated)		inactive: -6.54%
O=C1CN(C(=O)COc2ccc(Cl)cc2Cl)C(c2ccc(F)cc2)c2cc(F)ccc2N1 (configuration not stated)	inconclusive: 1 µM [inhibitor, partial curve, poor fit]	
Cc1ccc(CNC(=O)C(Cc2ccccc2)n2cccc2)cc1 (configuration not stated)	inconclusive: 25.9 µM [inhibitor, single point]	
CS(=O)(=O)N1CCN(C(=O)c2c(F)cccc2F)CC1	inconclusive: 6.51 µM [activator, single point]	
O=C(CCC(=O)Nc1ccccc1Cl)N/N=C/c1c[nH]c2ccccc12	inconclusive: 0.891 µM [activator, partial curve, poor fit]	
COc1ccccc1Oc1ccccc1C(=O)O	inconclusive: 20.6 µM [activator, single point]	
COc1ccccc1C1=NOC(COc2ccc3c(C)cc(=O)oc3c2)C1 (configuration not stated)	inconclusive: 3.55 µM [inhibitor, full curve, poor fit]	
COc1ccc(CNC(=O)c2ccc(Sc3ccc(Cl)cc3)c(NC(C)=O)c2)c(OC)c1		inactive: -22.1% [at 46.1 µM]
O=C(CSc1n[nH]c(-c2cccnc2)n1)Nc1ccc([N+](=O)[O-])cc1		inactive: 9.5%
Cc1ccc(C(=O)N/N=C\c2ccc(OC(=O)c3cccs3)cc2)cn1		inactive: 5.79%

Some of these compounds in order of formula weight, rising:
SMILES	Potency	activity change, negative = inhibition
CC(=O)COC(=O)CCc1nc2ccccc2[nH]c1=O		inactive: -17%
CS(=O)(=O)N1CCN(C(=O)c2c(F)cccc2F)CC1	inconclusive: 6.51 µM [activator, single point]	
Cc1cc(C)c(S(=O)(=O)NCCCn2ccnc2)cc1C	inconclusive: 1.26 µM [inhibitor, single point]	
CCCS(=O)(=O)N1CCN(C(=O)CCC2CCCC2)CC1	inconclusive: 7.94 µM [activator, partial curve, poor fit]	
Cc1ccc(CNC(=O)C(Cc2ccccc2)n2cccc2)cc1 (configuration not stated)	inconclusive: 25.9 µM [inhibitor, single point]	
CC(=O)N(C1=C(Cl)C(=O)c2ccccc2C1=O)C1CCCCC1	active: 12.6 µM	
CC(C)COC(=O)Nc1nnc(SCc2ccccc2F)s1	inconclusive: 6.51 µM [activator, partial curve, poor fit]	
O=C(CSc1n[nH]c(-c2cccnc2)n1)Nc1ccc([N+](=O)[O-])cc1		inactive: 9.5%
Fc1cccc(Cl)c1CSc1nnnn1-c1ccc2c(c1)OCO2	inconclusive: 29.1 µM [inhibitor, single point]	
O=C(Nc1ccnn1C1CCN(Cc2ccc(OC(F)F)cc2)CC1)C1CCCC1	inconclusive: 35.5 µM [inhibitor, partial curve, poor fit]	
COc1ccc(CNC(=O)c2ccc(Sc3ccc(Cl)cc3)c(NC(C)=O)c2)c(OC)c1		inactive: -22.1% [at 46.1 µM]
O=C1CN(C(=O)COc2ccc(Cl)cc2Cl)C(c2ccc(F)cc2)c2cc(F)ccc2N1 (configuration not stated)	inconclusive: 1 µM [inhibitor, partial curve, poor fit]	
COc1ccc(C(=O)c2oc3ccccc3c2NC(=O)c2nc(SC)ncc2Cl)cc1Cl		inactive: 7.04% [at 46.1 µM]
CCCC(C(=O)NC1CCCCC1)N(CC1CCCO1)C(=O)CNS(=O)(=O)c1ccc(F)cc1 (configuration not stated)	inconclusive: 0.562 µM [activator, single point]	

Later entries:

SMILES	Potency	activity change, negative = inhibition
CC(=O)Nc1ccc(-c2csc(NC(=O)Cc3cccc(F)c3)n2)cc1	inconclusive: 2.24 µM [inhibitor, partial curve, poor fit]	
CCOC(=O)Cc1csc(NC(=O)Cc2cccs2)n1		inactive: -16%
COc1ccc(C)cc1S(=O)(=O)N1CCN(c2cccc(C(F)(F)F)c2)CC1	inconclusive: 12.6 µM [inhibitor, partial curve, poor fit]	
COc1cc(OC)c(NC(=O)c2cnc(N3CCCC3)nc2C)cc1Cl	inconclusive: 6.31 µM [inhibitor, single point]	
CCc1n[nH]c(=S)n1/N=C/c1ccc(N(C)c2ccccc2)cc1	inconclusive: 0.501 µM [inhibitor, full curve, poor fit]	
CCSc1ncc(Cl)c(C(=O)Nc2sc(C(C)=O)c(C)c2C(=O)OC)n1		inactive: -0.37% [at 46.1 µM]
Cc1cc(C(=O)O)ccc1N=Cc1c(O)ccc2ccccc12	inconclusive: 7.08 µM [inhibitor, full curve, poor fit]	
O=C(NCC(c1ccco1)N1CCN(c2ccc(F)cc2)CC1)c1ccc2c(c1)OCO2 (configuration not stated)	inconclusive: 35.5 µM [inhibitor, single point]	
COc1ccc(CC2(C)OC(c3ccc(C)cc3)=NN2C(C)=O)cc1 (configuration not stated)	inconclusive: 0.447 µM [inhibitor, full curve, poor fit]	
CN(C)S(=O)(=O)c1cccc(COc2ccccc2C(=O)Nc2ccccc2)c1	inconclusive: 12.6 µM [inhibitor, partial curve, poor fit]	
O=C(COC(=O)c1ccc(S(=O)(=O)N2CCCC2)cc1)NCc1ccco1		inactive: 15.7%
CCCn1nnnc1SCC(=O)N(C(C)C)C(C)C		inactive: 5.17%
CCC(O)C1CCN(C(=O)c2cc(COc3ccc4ncccc4c3)on2)CC1 (configuration not stated)	inconclusive: 6.51 µM [inhibitor, partial curve]	
CC/C(=N\NS(C)(=O)=O)c1ccccc1		inactive: 2.52%
CCN(CC)C(=O)CSc1nnc2[nH]c(=O)cc(C)n12		inactive: -5.68% [at 46.1 µM]
Cc1cc(C)nc(NC(=NCCc2c[nH]c3ccccc23)NC(=O)Nc2ccccc2)n1	inconclusive: 28.2 µM [inhibitor, single point]	
CC(C)(C)c1cc(C=C(C#N)C#N)cc(C(C)(C)C)c1O	active: 0.411 µM	
Cc1cccc(NC(=O)c2ccc(OC3CSC3)cc2)c1	inconclusive: 22.4 µM [inhibitor, single point]	
Cc1ccc(Nc2nc(-c3ccncc3)nc3ccccc23)cc1		inactive: 1.01%
Cc1ccc(-n2ncc(Cl)c2C(=O)NC2CC2)cc1		inactive: -6.76% [at 46.1 µM]
O=C1NC(c2ccc(Br)cc2)Nc2ccccc21 (configuration not stated)	inconclusive: 3.16 µM [inhibitor, single point]	
CCCCC(CC)CNC(=O)CCS(=O)(=O)c1cccc2nsnc12 (configuration not stated)	inconclusive: 29.1 µM [inhibitor, single point]	
Cc1ccccc1-c1nn2c(=O)cc(CN3CCN(C(=O)c4ccccc4Br)CC3)nc2s1	inconclusive: 0.316 µM [activator, full curve, poor fit]	

Reference: PubChem BioAssay AID540256 (National Center for Advancing Translational Sciences (NCATS), 2011)
